Data taken from ChEMBL document CHEMBL4808211, “Exploration and Biological Evaluation of Basic Heteromonocyclic Propanamide Derivatives as SARDs for the Treatment of Enzalutamide-Resistant Prostate Cancer” (J Med Chem, 2021).

What was measured:
[1] = mouse, microsomes, 1 h
Androgen receptor = biological target: T1, Androgen receptor (Rattus norvegicus, UniProt P15207)
T1 sequence (P15207 whole entry): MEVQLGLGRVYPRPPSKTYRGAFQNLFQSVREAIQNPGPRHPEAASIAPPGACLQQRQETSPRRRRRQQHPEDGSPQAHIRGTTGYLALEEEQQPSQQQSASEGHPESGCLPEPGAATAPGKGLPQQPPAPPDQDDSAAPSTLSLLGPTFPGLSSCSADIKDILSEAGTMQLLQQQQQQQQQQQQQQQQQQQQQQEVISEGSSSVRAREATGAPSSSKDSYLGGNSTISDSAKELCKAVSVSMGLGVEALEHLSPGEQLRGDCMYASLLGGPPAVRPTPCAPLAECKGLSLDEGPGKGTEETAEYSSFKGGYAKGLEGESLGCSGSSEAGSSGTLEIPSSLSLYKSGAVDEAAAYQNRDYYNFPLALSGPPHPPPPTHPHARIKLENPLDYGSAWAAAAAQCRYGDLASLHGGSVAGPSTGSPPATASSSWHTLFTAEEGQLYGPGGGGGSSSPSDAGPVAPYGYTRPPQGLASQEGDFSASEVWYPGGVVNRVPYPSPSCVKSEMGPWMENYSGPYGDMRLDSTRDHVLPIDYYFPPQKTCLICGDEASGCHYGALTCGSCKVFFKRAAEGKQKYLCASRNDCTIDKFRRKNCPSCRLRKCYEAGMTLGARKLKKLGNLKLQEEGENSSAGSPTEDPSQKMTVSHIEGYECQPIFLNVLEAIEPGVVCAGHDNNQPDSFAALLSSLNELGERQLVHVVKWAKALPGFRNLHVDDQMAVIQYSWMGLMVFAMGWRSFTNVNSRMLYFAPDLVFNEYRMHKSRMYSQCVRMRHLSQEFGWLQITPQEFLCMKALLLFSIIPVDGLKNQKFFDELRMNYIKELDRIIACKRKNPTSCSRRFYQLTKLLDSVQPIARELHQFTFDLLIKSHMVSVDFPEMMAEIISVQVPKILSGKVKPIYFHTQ

in vivo [2] = details: C57BL/6J, mouse, po, 30 mg/kg
in vivo [3] = details: C57BL/6J, mouse, po, 30 mg/kg; remark: listed apart in the source

Row | SMILES | Ki (Androgen receptor) | other results
1 | C[C@](O)(Cn1cc(F)cn1)C(=O)Nc1ccc(C#N)c(C(F)(F)F)c1 | – | CLH [1]: 0.89 mL/min
2 | C[C@](O)(CNc1ccc(C#N)c(C(F)(F)F)c1)C(=O)Nc1ccc(C#N)c(C(F)(F)F)c1 | > 10 µM | –
3 | C[C@](O)(CN1CCCC1)C(=O)Nc1ccc(C#N)c(Cl)c1 | > 10 µM | –
4 | C[C@](O)(Cn1cncn1)C(=O)Nc1ccc(C#N)c(C(F)(F)F)c1 | > 10 µM | –
5 | C[C@](O)(Cn1cnc(C(F)(F)F)n1)C(=O)Nc1ccc(C#N)c(C(F)(F)F)c1 | > 10 µM | –
6 | C[C@](O)(Cn1cc(-c2ccc(F)cc2)nn1)C(=O)Nc1ccc(C#N)c(C(F)(F)F)c1 | > 10 µM | concentration at 6 h (in vivo [2]): 453 nM; concentration at 24 h (in vivo [3]): 332 nM
7 | C[C@](O)(Cn1cncc1Br)C(=O)Nc1ccc(C#N)c(C(F)(F)F)c1 | > 10 µM | –
8 | C[C@](O)(Cn1ccnc1)C(=O)Nc1ccc(C#N)c(Cl)c1 | > 10 µM | –
9 | C[C@](O)(CNc1nc[nH]n1)C(=O)Nc1ccc(C#N)c(C(F)(F)F)c1 | > 10 µM | –
